This test has as its target Aβ deposited in senile plaques of the brain of AβPP transgenic Tg2576 mice. Briefly: immunofluorescence of brain sections of Tg2576 mice given 3.4A10 intraperitoneally; detected with Alexa594 donkey anti-mouse IgG.

Results are given in words; binding and its absence hold for the method and conditions named. Binding calls can cover weak binding; strength is not graded here.

B1: monoclonal antibody 3.4A10 (antibody of Example 1) (antibody, V domains shown)
VH: EVQLLESGGGLVQPGGSRKLSCAASGFTFSSFGVHWFRQAPEKGLEWVAYISSGSSTIYYADTVKGRFTISRDNPKNTLFLQMASLRSEDTAMYYCAPYGSSPFPYWGQGTLVTVST
VL: ELQLTQSPASLAVSLGQRATISCRASESVDSYGYNFMHWYQQKPGQPPKLLIYLASNLESGVPARFSGSGSRTDFTLTIDPVEADDAATYYCQQNNEDPLTFGAGTKLELKR
B1: the binding entry is recorded as “binds”.

These data come from WO2009104736A1.
